This passage reports binding signal results from publication PMC7819943, “Rice protein-binding microarrays: a tool to detect cis-acting elements near promoter regions in rice”.

Chains of the proteins cited; added tags and fusions are not shown.
UniProt Q0JBA9, entry or part of it: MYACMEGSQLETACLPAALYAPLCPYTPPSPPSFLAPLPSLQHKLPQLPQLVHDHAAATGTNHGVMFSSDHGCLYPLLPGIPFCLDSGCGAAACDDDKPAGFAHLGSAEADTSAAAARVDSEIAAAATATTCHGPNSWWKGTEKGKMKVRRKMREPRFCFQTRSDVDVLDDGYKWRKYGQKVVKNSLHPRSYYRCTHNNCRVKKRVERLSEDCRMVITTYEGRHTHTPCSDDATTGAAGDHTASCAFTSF

The other results are listed elsewhere or left out.

The assay concerns the target OsWRKY34 (Oryza sativa, UniProt Q0JBA9 1-250). Nature of the assay: protein-binding microarray (RPBM); PBS, 2% BSA, 51.3 ng/ul salmon testes DNA, 50 uM zinc acetate, 200 nM TF, 25 C, 1 h; high values mean tight binding. Conditions: protein: recombinant; tags: N-terminal polyhistidine and DsRed monomer fusion (pET32a); label: CyDye5-dUTP incorporated in the synthesized complementary strand; 3' TTTTT single-stranded linker to array surface; dsDNA, one strand shown. The method in brief: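 Binding signal here means per-feature fluorescence intensity in arbitrary units. The values were read on an Axon 4000B scanner after a custom Agilent array, double-stranded by primer extension with Cy5-dUTP, was incubated with 200 nM protein at 25 °C for 1 h in PBS with 2% BSA, salmon testes DNA and 50 µM zinc acetate, then washed. The proteins were transcription factors with an N-terminal polyhistidine tag and DsRed, expressed in E. coli BL21-CodonPlus and purified on Ni–NTA.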
Turning to “TTTTAAAAAAGTCAACGATATTAAATATTTAGGGACGGATCGGAGTCACCTAGTGCAG”, the binding signal was 8220 fluorescence intensity (a.u.).
The same measure for “CCTCATCTTGGCCACGCGCACCCCGGCCACGCGTACATGGCGGAGTCACCTAGTGCAG”: 8350 fluorescence intensity (a.u.); for “GGTTTGGTTGGGGTTTAGGTCTCGGGGCGGCGCGGAGGCGCGGAGTCACCTAGTGCAG”: 17700 fluorescence intensity (a.u.); for “AAGATTTCGTTGGGTTTTTCTCTGTTACTTGACTAATACTCGGAGTCACCTAGTGCAG”: 8060 fluorescence intensity (a.u.).
As for “CATCCATATTAGCTTCCAACACAAGGAGATCACAACAATGCGGAGTCACCTAGTGCAG”, the binding signal was 9010 fluorescence intensity (a.u.).
As for “CAGCCTGTACTTGTCCTTGTTGCCGACGATCTCCTCAAAGCGGAGTCACCTAGTGCAG”, the binding signal is 9750 fluorescence intensity (a.u.).
To “ACTTCAAACGGCCGCCGAATCTGCATACGACCTCCATTTTCGGAGTCACCTAGTGCAG” belongs 11000 fluorescence intensity (a.u.).
Take “AATCACTGGTATTACGGCTACCTCATGTTTTGAATCAGCTCGGAGTCACCTAGTGCAG”: the binding signal was 8760 fluorescence intensity (a.u.).
As to “ACAGCCGCGTCGCCGCTTGTCCGCCTGCGCTCGTTCTCGCCGGAGTCACCTAGTGCAG”, the binding signal was 9640 fluorescence intensity (a.u.).
The same measure for “AGAGTACATTCTAGAAGCCCTATGCCTTATCCTATATAAACGGAGTCACCTAGTGCAG”: 8420 fluorescence intensity (a.u.); for “ATATGCTGTCTTTTACTTGACTTGTAGTGCAACCTTCCACCGGAGTCACCTAGTGCAG”: 12100 fluorescence intensity (a.u.); for “ATAAATCCCTTTCTTACCTGTGCCGGCTTCTCCGCTTGTTCGGAGTCACCTAGTGCAG”: 8700 fluorescence intensity (a.u.).
To “GTTACTGTTGTTACCTATCTTGCTCTTTGTGCCCGTGTTGCGGAGTCACCTAGTGCAG” belongs 9800 fluorescence intensity (a.u.).
Take “GTTGGGTGGCCTCCCTCCGTTTCTGCCTTCTTCATTGTCACGGAGTCACCTAGTGCAG”: the binding signal was 8180 fluorescence intensity (a.u.).
“GTTACTAAATTTTGGTAGCGTTGGTTGCATTTGGGGCCATCGGAGTCACCTAGTGCAG”: the binding signal was 10100 fluorescence intensity (a.u.).
As to “GGCCAGCAAACCCAACGCGCCGTCATTATCACACCACACACGGAGTCACCTAGTGCAG”, the binding signal is 10400 fluorescence intensity (a.u.).
The same measure for “TGTTTATGGATGGACTATGTGGGGTCAGTCGCCTCCGTAGCGGAGTCACCTAGTGCAG”: 10500 fluorescence intensity (a.u.); for “CAAGTCACCCAATCATCATCATCAAACGCCAACCAACAGCCGGAGTCACCTAGTGCAG”: 8630 fluorescence intensity (a.u.); for “TCCTTTCCTACTTGGATTCCATTCTCATCTCTCTCTCTCTCGGAGTCACCTAGTGCAG”: 8130 fluorescence intensity (a.u.).
Take “ATTTTAATTCCGAATTTCAGTTATTTCCTAATTGTATTTCCGGAGTCACCTAGTGCAG”: the binding signal was 8100 fluorescence intensity (a.u.).
The same measure for “TAAAAATATATTAATATATTTTTCAAGTTTTTTACTAATACGGAGTCACCTAGTGCAG”: 9060 fluorescence intensity (a.u.); for “TTTGATGTGACATGATGTAAAGTTTTGGGATGGGATCTAACGGAGTCACCTAGTGCAG”: 8700 fluorescence intensity (a.u.).
Take “ACCTGGCCATAAATATATATATTGCTGCCCGTATTCCTGTCGGAGTCACCTAGTGCAG”: the binding signal was 8710 fluorescence intensity (a.u.).
To “TAGTGAGTGTGCATGTGTTATAAGTCTGCAATTGTACCGTCGGAGTCACCTAGTGCAG” belongs 10300 fluorescence intensity (a.u.).
Turning to “GCGAACCGCGAATACAATAGCCGGCGCCCCGCGCGTACACCGGAGTCACCTAGTGCAG”, the binding signal was 8070 fluorescence intensity (a.u.).
The same measure for “CATCGTCACCGCCGATGACCGGTTATATTTATCTTCATGACGGAGTCACCTAGTGCAG”: 9120 fluorescence intensity (a.u.).
To “CAGATTCACATGACCAACAACATCCAGACCATGGCCGATTCGGAGTCACCTAGTGCAG” belongs 8140 fluorescence intensity (a.u.); to “GACCCCTCCGACCGCTACGCCAACCACAACACCGTCTTCTCGGAGTCACCTAGTGCAG”, 9430 fluorescence intensity (a.u.); to “GAGATGGATAGGGAGAGGGCTCACAGTCGCCGAGGCGGTCCGGAGTCACCTAGTGCAG”, 8460 fluorescence intensity (a.u.).
To “TGGATCATCGCAGCTTAAACATTAATTTGTTCTCGTCTTTCGGAGTCACCTAGTGCAG” belongs 9890 fluorescence intensity (a.u.); to “ATTTGCCACTCTTACAAATGGTGCTTAATGATTTGCCACTCGGAGTCACCTAGTGCAG”, 8120 fluorescence intensity (a.u.).
For “TAATTCCTATGTTTTTTCAATCATCTGTTTTAGACTTGTACGGAGTCACCTAGTGCAG”, the binding signal is 9380 fluorescence intensity (a.u.).
To “CCATTGCTGCTGCCAACCCTATTCCTCTCTCTTCCACCGCCGGAGTCACCTAGTGCAG” belongs 8030 fluorescence intensity (a.u.); to “ATTGAGCGATTTTCGGTATTTCACGATGGGTTATATTTTACGGAGTCACCTAGTGCAG”, 8720 fluorescence intensity (a.u.).
For the sequence “GTGTGGTGACGGTCGGGGAGGGTGGCTGCGCGCAGTGCCTCGGAGTCACCTAGTGCAG”, the binding signal is 10900 fluorescence intensity (a.u.).
On to “CGTGGCTGCCCTCAACCAACTTTGGCCTCTCATCTTATCCCGGAGTCACCTAGTGCAG”, for which the binding signal is 8950 fluorescence intensity (a.u.).
The same measure for “AAACCTTTTTTTTTCTCTTCGCTCTCACAAAAGACAAACTCGGAGTCACCTAGTGCAG”: 8240 fluorescence intensity (a.u.); for “ACTGAGTCCTCGCCGACGTCGTTGCTTGCACCAACCAACTCGGAGTCACCTAGTGCAG”: 9770 fluorescence intensity (a.u.).
As for “TGTGGGTGTGTTTGTGTGCTCAGTTTGGATTAGGGCAAGTCGGAGTCACCTAGTGCAG”, the binding signal was 12200 fluorescence intensity (a.u.).
To “TGTGGTTTGGGTGCTCTGCTCTCGTGTGACCAGCCGATTTCGGAGTCACCTAGTGCAG” belongs 9030 fluorescence intensity (a.u.); to “GTTGTCAGTGTGGTTATTGGAGCAGTTGCCATCGATCATGCGGAGTCACCTAGTGCAG”, 9230 fluorescence intensity (a.u.).
The same measure for “TCACGGTTCGACTACATCGGCTCTTCAGTGTCATCTACCTCGGAGTCACCTAGTGCAG”: 9870 fluorescence intensity (a.u.).
